Experimental data taken from patent publication US20260124298A1.
No constants are given. Whether binding was seen depends on the method and setting. Some entries that bind do so weakly or less than the wild type.

By UniProt entry, the sequences of proteins in these tests, tags left out. Where a name states a change or a piece, a line headed by the entry shows the natural chain unless it says otherwise.
UniProt Q6UXN8: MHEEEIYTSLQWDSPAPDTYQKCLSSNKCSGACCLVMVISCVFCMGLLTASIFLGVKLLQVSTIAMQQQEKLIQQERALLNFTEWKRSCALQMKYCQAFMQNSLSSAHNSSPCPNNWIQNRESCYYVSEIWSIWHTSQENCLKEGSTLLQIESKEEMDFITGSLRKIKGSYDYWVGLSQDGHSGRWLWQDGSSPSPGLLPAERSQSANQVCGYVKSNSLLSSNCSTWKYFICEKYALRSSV

Assays:
human Clec9A (human) [1] = target: human Clec9A (human) (UniProt Q6UXN8); assay: FACS, crude periplasmic extract, CHO-K1 cells transfected with human Clec9A; parental CHO-K1 as negative control
mouse Clec9A (mouse) [2] = target: T1, mouse Clec9A (mouse) (UniProt Q8BRU4); assay: FACS, crude periplasmic extract, CHO-K1 cells transfected with mouse Clec9A
T1 sequence (looked up): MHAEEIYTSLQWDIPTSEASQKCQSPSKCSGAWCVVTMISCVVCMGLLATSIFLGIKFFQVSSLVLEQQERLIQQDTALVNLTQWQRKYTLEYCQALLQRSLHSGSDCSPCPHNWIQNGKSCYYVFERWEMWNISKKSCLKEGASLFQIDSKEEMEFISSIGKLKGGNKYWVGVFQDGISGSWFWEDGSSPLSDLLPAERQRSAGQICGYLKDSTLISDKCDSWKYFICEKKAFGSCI

human Clec9A (human) [3] = target: human Clec9A (human) (UniProt Q6UXN8); assay: FIG. 5 legend, statement on the groups (FACS of paragraph 573)
mouse Clec9A (mouse) [4] = target: T1, mouse Clec9A (mouse); assay: as above
human Clec9A (human) [5] = target: human Clec9A (human) (UniProt Q6UXN8); assay: FACS, purified His-tagged VHH (serial dilution from 1000 ng/ml), HEK293T cells transfected with human Clec9A, FITC anti-His
human Clec9A (human) [6] = target: human Clec9A (human) (UniProt Q6UXN8); assay: FIG. 5 legend, statement on the groups; paragraph 573 says this clone was not tested in FACS
human Clec9A (human) [7] = target: human Clec9A (human) (UniProt Q6UXN8); assay: filing's conclusion from FACS of group representatives; this clone is not in the list of those tested

B1: R1CHCL34 (VHH)
VHH: DVQLVESGGGSVQAGGSLRLSCAASGRTISNYDMAWSRQAPGKEREFVARISGSGDRTDYADSVKGRFTISRDNAKNTVYLQMNSLKPEDTAIYYCQIQDFRSPDFWSQGTQVTVSS
In the case of B1, the binding (human Clec9A (human) [1]) is reported as “binds”, the binding (mouse Clec9A (mouse) [2]) is reported as “binds” and the binding (human Clec9A (human) [3]) is reported as “binds”. The binding (mouse Clec9A (mouse) [4]) was “binds” and the binding (human Clec9A (human) [5]) was “binds”.

B2: R1CHCL82 (VHH)
VHH: QVQLVESGGESVQAGGSLRLSCAASGRTISNYDMAWSRQAPGKEREFVARISGSGDRTDYADSVKGRFTISRDNAKNTVYLQMNSLKPEDTAIYNCQTQIFGSPNFSGQGTQVTVSS
For B2, the binding (human Clec9A (human) [6]) was “binds”, the binding (human Clec9A (human) [7]) was “binds” and the binding (human Clec9A (human) [5]) was “binds”.

B3: R1CHCL16 (VHH)
VHH: DVQLVESGGGLVQPGGSLRLSCAASGSIFSLNAMGWYRQAPGKERELVAHITSDGRIVYADPVKGRFTISRVDGKNMVTLQMNSLKPEDTAVYYCNAKHYASNYWGQGTQVTVSS
For B3, the binding (human Clec9A (human) [1]) was “binds” and the binding (human Clec9A (human) [5]) was “binds”.

B4: R1CHCL50 (VHH)
VHH: QVQLVESGGGLVHPGGSLRLSCAASGSFSSINVMGWYRQAPGKERELVARITNLGLPNYADSVTGRFTISRDNAKNTVYLQMNSLKPEDTAVYYCYLVALKAEYWGQGTQVTVSS
With B4 the binding (human Clec9A (human) [1]) was “binds” and the binding (human Clec9A (human) [5]) was “binds”.

B5: R2CHCL3 (VHH)
VHH: QVQLVESGGGLVQAGDSLRLSCAASGRTFTTSLMQWHRQAPGKEREFVASITWSTGNTHYADSVKGRFTISRDNARNTVYLQMNSLKPEDTAIYTCRVLAIHGDYWGQGTQVTVSS
For B5, the binding (human Clec9A (human) [1]) was “binds” and the binding (human Clec9A (human) [5]) was “binds”.

B6: R2CHCL10 (VHH)
VHH: QVQLVESGGGSVQAGGSLRLSCAASGRTISNYDMAWSRQAPGKEREFVARISGSGDRTDYADSVKGRFTISRDNAKNTVYLQMNSLKPEDTAIYYCQIQDFGSPSFSGQGTQVTVSS
In the case of B6, the binding (human Clec9A (human) [1]) is reported as “binds”, the binding (mouse Clec9A (mouse) [2]) is reported as “binds” and the binding (human Clec9A (human) [3]) is reported as “binds”. The binding (mouse Clec9A (mouse) [4]) was “binds” and the binding (human Clec9A (human) [5]) was “binds”.

B7: R2CHCL13 (VHH)
VHH: QVQLVESGGGLVQPGGSLRLSCAASGFTFSGYVMSWVRQAPGKGLEWVASIGSGGGYPSYTDSVEGRFTISRDNAKNTLYLLMDNLKPDDTAVYYCEMLGRRGQGTQVTVSS
With B7 the binding (human Clec9A (human) [1]) was “binds”.

B8: R2CHCL24 (VHH)
VHH: QVQLVESGGGLVQPGGSLRLSCAASGSSDSINAMGWYRQAPGKERELVAAITSGGRVVYSDSVKGRGTISRDNAKNTVYLQIASLKPEDTAVYYCNVKTKSAVLFGGMDYWGKGTQVTVSS
In the case of B8, the binding (human Clec9A (human) [1]) is reported as “binds” and the binding (human Clec9A (human) [5]) is reported as “binds”.

B9: R2CHCL25 (VHH)
VHH: QVQLVESGGGLVQAGGSLRLSCATSGLTLSSYYIAWYRQAPGREREFVAQIRWSDDSTYYPGSVKGRFTISRDNARNTVYLRMDNLKPEDTARYYCDARKVGGPDYWGQGTQVTVSS
With B9 the binding (human Clec9A (human) [1]) was “binds” and the binding (human Clec9A (human) [5]) was “binds”.

B10: R2CHCL27 (VHH)
VHH: QVQLVESGGGLVQPGGSLRLSCAASGFTFSGYLMSWVRQAPGKGLEWVATIGSGGGITSYADSVKGRFTISRDNAKNTLYLQMNNLKHEDTAVYYCETVIKRGQGTQVTVSS
B10 was tested, and the binding (human Clec9A (human) [1]) was “binds”.

B11: R2CHCL49 (VHH)
VHH: DVQLVESGGGSVQAGGSLRLSCAISGLTFSNYHMGWYRQAPGREREFVAQITWSDASIYYAGSVKGRFTISRDNVKNIVYLQIDNLKPEDTAIYYCDARKVGGPDYWGQGTQVTVSS
With B11 the binding (human Clec9A (human) [1]) was “binds”.

B12: R2CHCL87 (VHH)
VHH: QVQLVESGGGLVQPGGSLRLSCAASGSISSINVMGWYRQAPGKERELVARITNLGLPNYADSVEGRFTISRDKDENTVYLEMNTLKPEDTAVYYCYLVGLKAEYWGQGTQVTVSS
B12 was tested, and the binding (human Clec9A (human) [1]) was “binds” and the binding (human Clec9A (human) [5]) was “binds”.

B13: R2CHCL22 (VHH)
VHH: DVQLVESGGGLVQAGGSLRLSCAISGLTFSRYHMGWYRQAPGREREFVAQITWSDGTTYYPGSVKGRFTISRDNARNTVYLQIDNLKPEDTAIYYCDARKVGGPDYWGQGTQVTVSS
In the case of B13, the binding (human Clec9A (human) [7]) is reported as “binds” and the binding (human Clec9A (human) [5]) is reported as “binds”.

B14: R2CHCL8 (VHH)
VHH: QVQLVESGGGLVHPGGSLRLSCAASGSISSINVMGWYRQAPGKERELVARITNLGLPNYADWLKDRFTISRDNAKNTVYLQMNSLKPEDTAVYYCYLVALSAEYWGQGTQVTVSS
B14 was tested, and the binding (human Clec9A (human) [7]) was “binds” and the binding (human Clec9A (human) [5]) was “binds”.

B15: R2CHCL94 (VHH)
VHH: QVQLVESGGGLVQPGGSLRLSCAASGFTFSGYVMTWVRQAPGKGLEWVAHIGSGGGHATYTDSVEGRFTISRDNAKNTLYLQMNNLKAEDTAVYYCEFLGRRGQGTQVTVSS
In the case of B15, the binding (human Clec9A (human) [7]) is reported as “binds” and the binding (human Clec9A (human) [5]) is reported as “binds”.
